Measured values published in PubChem BioAssay AID1347076 (National Center for Advancing Translational Sciences (NCATS), 2019).
In all, about 400,000 compounds went through this assay and about 13,000 (3.2%) were called active. Inconclusive means that the source gave no clear call. Such entries were picked first, then a sample of the others. The call rests on the fitted dose curve; in most records, active means well fitted cell-killing curve with a large enough effect; inconclusive means small, poorly fitted or top-dose-only effect, or effect the other way; inactive means flat fitted curve, though single readings scatter. A potency beside an inconclusive call is a rough fit, not a confirmed value.

Test: qHTS assay for MDR1-selective chemotherapeutics: Primary screen using the drug-selected MDR subline cells KB-V1; further: nearly all actives have a fitted effect of over 60% in size
Conditions: KB-V1 MDR cells viability, CellTiter-Glo, 72 h; activity change, negative = cytotoxicity: at 46.1 µM (top of the series)
Method in brief: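 KB-V1, DMEM (no phenol red) + 10% FBS; cpd pin-transferred, titration series; 72 h, 37 degrees C; CellTiter-Glo, luminescence. Data normalized, curve-fit.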
On the % scale 0 is the no-effect control and ±100 the full control effect; potency means the concentration at half of the fitted maximal effect.

| SMILES | Potency | activity change, negative = cytotoxicity |
| --- | --- | --- |
| CC1CCN(CCCCOc2ccccc2-c2ccccc2)CC1 | inconclusive: 11.6 µM [cytotoxic, partial curve] | – |
| C[C@@H]1NC(=O)c2cc([N+](=O)[O-])cc(I)c2NCC[C@@H](C(N)=O)NC(=O)[C@H](CC(N)=O)NC1=O | inconclusive: 29.1 µM [rising, single point] | – |
| O=C(N/C(=C/c1ccco1)C(=O)N1CCCCCC1)c1ccccc1 | inactive | – |
| Cn1c(Cc2ccccc2)nnc1SCC(=O)N1CCOCC1 | inconclusive: 29.1 µM [rising, single point] | – |
| Cc1cc(C)c2c(n1)nn1c(C)c(CCC(=O)Nc3cccc(C)c3C)c(C)nc21 | inactive | – |
| CSc1nnc(Cn2c(=O)sc3ccccc32)n1-c1ccccc1 | inactive | – |
| COc1ccc(NC(=O)N(C)C[C@H]2Oc3ccc(NC(=O)C4CCCCC4)cc3C(=O)N([C@H](C)CO)C[C@@H]2C)cc1 | inconclusive: 29.1 µM [rising, single point] | – |
| COC(=O)Cn1nc(-c2ccc(C)c(S(=O)(=O)N(C)C)c2)c2ccccc2c1=O | active: 18.4 µM | – |
| Cc1cc(C)n(-c2nc(NCc3cccnc3)c3c4c(sc3n2)COC(C)(C)C4)n1 | inconclusive: 0.103 µM [cytotoxic, full curve] | – |
| CC(C)NC(=O)CSc1nnc(-c2ccc(C(C)(C)C)cc2)n1C | active: 25.9 µM | – |
| CC(=O)N1c2ccc(S(=O)(=O)NCCC(=O)Nc3ccc(F)cc3)cc2CC1C (stereo unspecified) | inconclusive: 20.6 µM [rising, single point] | – |
| CCc1nn(CC(=O)NCc2ccccc2)c(=O)c2cccn12 | inactive | – |
| CCOCCCn1c(=N)c(C(=O)NC2CCCCC2)cc2c(=O)n3ccccc3nc21 | inactive | – |
| CS(=O)(=O)Nc1ccccc1C(=O)Nc1cc2c(cc1C(=O)O)OCCCO2 | inconclusive: 0.651 µM [cytotoxic, full curve, poor fit] | – |
| CCN(C(=O)c1ccco1)c1nc(CC(=O)Nc2ccc(Cl)cc2)cs1 | active: 16.4 µM | – |
| COc1ccc(Br)cc1C(=O)Nc1ccccc1N1CCN(C(=O)c2ccccc2)CC1 | inconclusive: 4.11 µM [cytotoxic, full curve] | – |
| Cc1cccc(NC(=O)CSc2nc(-c3cccs3)nc3cc(=O)[nH]n23)c1 | inconclusive: 29.1 µM [rising, single point] | – |
| Cn1c(-c2c(N)n(CCc3ccccc3)c3nc4ccccc4nc23)nc2ccccc21 | active: 14.6 µM | – |
| COc1ccc(OC)c(S(=O)(=O)N2CCC(C(=O)Nc3ccc(C)c(C)c3)CC2)c1 | inconclusive: 16.4 µM [cytotoxic, partial curve] | – |
| CC1(C)CC(=O)C=C(NNC(=O)c2ccccc2O)C1 | inconclusive: 11.6 µM [cytotoxic, partial curve] | – |
| COc1ccc(NS(=O)(=O)c2cccc3nsnc23)cc1OC | inconclusive: 18.4 µM [cytotoxic, single point] | – |
| O=C1C=C(c2ccc3ncccc3c2)C[C@@H](c2ccc3c(c2)OCO3)C1 | inconclusive: 23.1 µM [cytotoxic, partial curve, poor fit] | – |
| CCOC(=O)c1c(NC(=O)CSc2ncccn2)sc(C(=O)NC)c1C | inconclusive: 18.4 µM [cytotoxic, partial curve] | – |

| SMILES | Potency | activity change, negative = cytotoxicity |
| --- | --- | --- |
| O=C(CCCCCNC(=O)c1ccccc1)N/N=C/c1ccccc1O | inconclusive: 16.4 µM [cytotoxic, partial curve, poor fit] | – |
| CN(CCS(=O)(=O)c1ccc(Cl)cc1)Cc1cccnc1 | inactive | – |
| Cc1ccc(S(=O)(=O)N(CCO)Cc2cc3ccc(C)c(C)c3[nH]c2=O)cc1 | active: 16.4 µM | – |
| Cc1cc(C)n2nc(CNS(=O)(=O)c3cccc(Cl)c3)nc2n1 | inactive | – |
| COc1cc(NC(=O)c2sc3ncn(CC(=O)N4CCC(C)CC4)c(=O)c3c2C)cc(OC)c1OC | inconclusive: 2.06 µM [cytotoxic, full curve] | – |
| CCOc1ccccc1C(=O)NCCCCCC(=O)O | inconclusive: 18.4 µM [rising, partial curve, poor fit] | – |
| CCOC(=O)C(C(=O)c1ccccc1)C(c1ccccc1)c1nccc2ccccc12 (stereo unspecified) | inconclusive: 13 µM [cytotoxic, partial curve] | – |
| CCOC(=O)CCc1c(C)c2ccc(OCC(=O)N(CC)CC)c(C)c2oc1=O | – | inconclusive: -27.3% |
| CN(CC(=O)Nc1ccc(F)cc1)C(=O)COc1ccccc1Cc1ccccc1 | active: 18.4 µM | – |
| CC(C)[C@H](NC(=O)NCCc1ccccc1)C(=O)O | inconclusive: 29.1 µM [rising, single point] | – |
| O=C(Nc1cccc(C(F)(F)F)c1)c1cc(S(=O)(=O)N2CCCCC2)ccc1N1CCOCC1 | inactive | – |
| O=C(Nc1ccc2nc(-c3cccs3)c(-c3cccs3)nc2c1)N1CCCC1 | inactive | – |
| Cc1cc(C)c2oc(-c3cccc(NC(=O)c4cccc(F)c4)c3C)nc2c1 | inconclusive: 6.51 µM [cytotoxic, full curve] | – |
| Cc1cc([N+](=O)[O-])nn1CCCC(=O)N1CCN(c2ccc(F)cc2)CC1 | active: 18.4 µM | – |
| Cc1ccc(NC(=O)CN2C(=O)C(C)Oc3ccccc32)nc1 (stereo unspecified) | active: 14.6 µM | – |
| Cc1ccccc1CN(C)CC(=O)Nc1c(C)cccc1C(C)C | inconclusive: 29.1 µM [cytotoxic, partial curve, poor fit] | – |
| COC(=O)c1c(NC(=O)Cc2coc3cc(C)cc(C)c23)sc2c1CCC2 | inactive | – |
| COc1ccc(CN2CCC(Cc3ccccc3)CC2)c(C)c1C | inactive | – |
| O=C(/C=C/c1ccc(Br)o1)NC(c1ccccc1)c1ccccc1 | active: 23.1 µM | – |
| Cc1cccc(OS(=O)(=O)NC(=O)OCC2CCCN3CCCCC23)c1 (stereo unspecified) | inconclusive: 0.0052 µM [cytotoxic, full curve, poor fit] | – |
| O=C(NN1CCN(Cc2ccccc2Cl)CC1)c1ccc(Cl)cc1 | inconclusive: 13 µM [cytotoxic, partial curve] | – |
| Cc1ccc(NC(=O)CSc2nc3ccc(NC(=O)c4ccco4)cc3s2)cc1 | inactive | – |
| CCOc1ccc(S(=O)(=O)N2CCCC(C(=O)Nc3ccccc3)C2)cc1 (stereo unspecified) | active: 10.3 µM | – |
